Data as given in PubChem BioAssay AID602196 (INSERM, 2012).

Test: 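Genes whose knock-down alters cisplatin killing of lung cancer cells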
System: human A549 lung cancer cells
Reagents: siRNA pair against human genes
Time to read-out: 48 h transfection before cisplatin; time from cisplatin to read-out not stated
Challenge: cisplatin at a dose killing half of control-siRNA cells; exact dose and duration not given
Measurement: 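Shift in cisplatin death relative to control siRNA, from -50 (all cells die) to +50 (no cells die); siRNAs harmful on their own scored 0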
Direction: two-siRNA summed score (-2 to +2): higher = both siRNAs protect from cisplatin killing; -2 means both sensitise
Hit rule: 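Each siRNA scores 0 if harmful alone by LDH or WST-1, otherwise +1 if it reduces and -1 if it increases cisplatin killing; a gene is active when both siRNAs agree (sum +2 or -2)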
Calls: active = both siRNAs shift cisplatin killing the same way; inactive = no consistent shift, or siRNA harmful alone
The deposit covers about 23,000 reagents; below is a random part of them. 455 of all reagents (2%) were called active. 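Active includes both protection and sensitisation; some change values fall well beyond the stated -50 to +50 range.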 Further read-outs or replicates are left out here. Not stated in the record: the amount of reagent.

After knock-down of TRPC4, the record shows two-siRNA summed score (-2 to +2) = 0; inactive.
After knock-down of ZNF235, the screen gave two-siRNA summed score (-2 to +2) = 1; inactive.
Silencing of BRME1 gave: two-siRNA summed score (-2 to +2) = 0; inactive.
For PLEKHO1, the entry reads two-siRNA summed score (-2 to +2) = 0; inactive.
After knock-down of ITGB2, the screen gave two-siRNA summed score (-2 to +2) = -1; inactive.
After knock-down of PPP1R1A the results were two-siRNA summed score (-2 to +2) = 0; inactive.
After knock-down of LINC02874, the record shows two-siRNA summed score (-2 to +2) = 0; inactive.
With knock-down of LOC401206, the record shows two-siRNA summed score (-2 to +2) = 0; inactive.
With knock-down of KREMEN2 the results were two-siRNA summed score (-2 to +2) = -1; inactive.
Depletion of ZNF398 resulted in: two-siRNA summed score (-2 to +2) = 0; inactive.
Knock-down of FCGR2C gave: two-siRNA summed score (-2 to +2) = 0; inactive.
With knock-down of FLJ38359, the record shows two-siRNA summed score (-2 to +2) = 0; inactive.
